In patent US20210040041A1, “QUINOLINE DERIVATIVES AND PREPARATION METHODS AND USES THEREOF” (DONGGUAN HEC PESTICIDES R&D CO., LTD., priority 2018, published 2021):
Some results were stated once for a whole list of compounds, not compound by compound.

System: Armyworm, Diamondback moth, Beet Armyworm and Frankliniella occidentalis
Assay: Test examples 2: summary statements for the above pests
Type: in vivo

Row | Compound | mortality rate to the above pests (dose of 3.13 mg/L) | mortality rate to the above pests (dose of 6.25 mg/L)
1 | CCc1nc2cc(C)c(Oc3ccc(OC(F)(F)F)cc3)cc2c(OC(=O)OCCOC)c1C [Example 1, 2-ethyl-3,7-dimethyl-6-(4-(trifluoromethoxy)phenoxy)quinolin-4-yl (2-methoxyethyl)carbonate] | more than 80% | more than 90%
2 | CCc1nc2cc(C)c(Oc3ccc(OC(F)(F)F)cc3)c(C)c2c(OC(=O)OCCOC)c1C [Example 18, 2-ethyl-3,5,7-trimethyl-6-(4-(trifluoromethoxy)phenoxy)quinolin-4-yl (2-methoxyethyl) carbonate] | more than 80% | more than 90%
